Among the data in publication PMC7819943, “Rice protein-binding microarrays: a tool to detect cis-acting elements near promoter regions in rice” are binding signal values, retold here.

Protein sequences, listed by entry. Tags and fused reporters are not part of them.
UniProt Q0JBA9, entry or part of it: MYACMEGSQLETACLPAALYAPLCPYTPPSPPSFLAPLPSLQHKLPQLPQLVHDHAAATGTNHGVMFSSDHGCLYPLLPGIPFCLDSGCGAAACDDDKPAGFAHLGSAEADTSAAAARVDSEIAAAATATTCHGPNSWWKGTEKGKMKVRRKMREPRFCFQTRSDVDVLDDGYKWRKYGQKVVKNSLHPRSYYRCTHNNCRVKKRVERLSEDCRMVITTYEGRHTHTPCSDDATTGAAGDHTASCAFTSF

The other results are listed elsewhere or left out.

In this test the target is OsWRKY34 (Oryza sativa, UniProt Q0JBA9 1-250). The experiment in a line: protein-binding microarray (RPBM); PBS, 2% BSA, 51.3 ng/ul salmon testes DNA, 50 uM zinc acetate, 200 nM TF, 25 C, 1 h; high values mean tight binding. Particulars: protein: recombinant; tags: N-terminal polyhistidine and DsRed monomer fusion (pET32a); label: CyDye5-dUTP incorporated in the synthesized complementary strand; 3' TTTTT single-stranded linker to array surface; dsDNA, one strand shown. The essentials: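 For the binding signal, per-feature fluorescence intensity was read in arbitrary units on an Axon 4000B scanner. Before scanning, a 2% BSA-blocked custom Agilent array made double-stranded with Cy5-dUTP was washed after 1 h at 25 °C with 200 nM protein and 50 µM zinc acetate. The proteins were Ni–NTA-purified transcription factors with N-terminal polyhistidine and DsRed fusions, expressed in E. coli BL21-CodonPlus.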
For “GGCTCACGTATTTTCCTGGTTGATCTAGACCATCCTTTTTCGGAGTCACCTAGTGCAG”, the binding signal is 8860 fluorescence intensity (a.u.). Regarding “TACTCTATACTCTCTCCGTACTCATGAAAGAAGTCGTTTTCGGAGTCACCTAGTGCAG”, the binding signal is 8410 fluorescence intensity (a.u.). The figure for “ACCTCCGCCTCCGCCTCCGCCTCCGTCTCCACCTCCGCCTCGGAGTCACCTAGTGCAG” is 8940 fluorescence intensity (a.u.).

In the case of “GTACTGTAGTAGCCATTATTTTTTCCTGTTCATATGCTAACGGAGTCACCTAGTGCAG”, the binding signal was 12000 fluorescence intensity (a.u.). The result for “GCTTTGAACACTCATCTCCTCACCGTGTTTGTTAGAGCTCCGGAGTCACCTAGTGCAG” reads 11200 fluorescence intensity (a.u.); that for “ATCGCAAATTTGGCTTCCTTTTCACCTTTCCTCGCTTCAACGGAGTCACCTAGTGCAG”, 11200 fluorescence intensity (a.u.). With “GTTCTATATGTTATAGGCTCAATTTTTTTTGTCAACTTTACGGAGTCACCTAGTGCAG”, the binding signal is 9180 fluorescence intensity (a.u.). In the case of “GCGCCGCCGAACCACCCTCACCACCCACCGCAGCCGCGTCCGGAGTCACCTAGTGCAG”, the binding signal is 9940 fluorescence intensity (a.u.). Consider “GCCAGTCCAAACCTCACTTGACTGGAGCTAACCGCTGACGCGGAGTCACCTAGTGCAG”, for which the binding signal was 8140 fluorescence intensity (a.u.). The figure for “ATAATGGTCCGTGACATATCCATCCTTAATCCATCAATTTCGGAGTCACCTAGTGCAG” is 8450 fluorescence intensity (a.u.).

Regarding “AGGCTTACCAGTTTTAGTACTACCACACTCCTACTGCACCCGGAGTCACCTAGTGCAG”, the binding signal is 10000 fluorescence intensity (a.u.). The figure for “GTCATTTCACCTCCCCGGCCCACGCCCGCCGCGCGGCCCACGGAGTCACCTAGTGCAG” is 8820 fluorescence intensity (a.u.); for “TTCTTGCATTTGTCACTTCCCTTGATGCTTTTGATAATCACGGAGTCACCTAGTGCAG” it is 8960 fluorescence intensity (a.u.); for “GATGTTCCTGGCCGTGATCGAGCTCCTGCGTTCTTGCTTACGGAGTCACCTAGTGCAG” it is 10400 fluorescence intensity (a.u.).

As for “TTCTTGATGTCTCAGCTACTAGCTACCATGAGTTCAGATACGGAGTCACCTAGTGCAG”, the binding signal is 8280 fluorescence intensity (a.u.).

With “CATTCCTCTGCCTTGCAATTGGTGCGCCGTCTTCTCTCTTCGGAGTCACCTAGTGCAG”, the binding signal is 14700 fluorescence intensity (a.u.). The result for “TGTTCTTATTAATACCTACAACTCTTGGTCACTCACTCTCCGGAGTCACCTAGTGCAG” reads 8300 fluorescence intensity (a.u.); that for “CTCTGTTTCTATTGTCGTTGTTCCCTTCTTCTACTGGTAACGGAGTCACCTAGTGCAG”, 9450 fluorescence intensity (a.u.). The result for “GTAGGTAATTTGTAGGAGTAGAGTTTTTTTTTATCAATAACGGAGTCACCTAGTGCAG” reads 8560 fluorescence intensity (a.u.); that for “GAGATAAACCCGCACCGTCCGTCTCCGTCTCCGTCCTCTCCGGAGTCACCTAGTGCAG”, 9020 fluorescence intensity (a.u.); that for “CATTGGCTTTTTAATCAACATTTGATCATTCGTCTTATTCCGGAGTCACCTAGTGCAG”, 8490 fluorescence intensity (a.u.). Regarding “CCCACCACCCACCACCCACCGCCACCTTTTGTTCCGCAACCGGAGTCACCTAGTGCAG”, the binding signal is 8860 fluorescence intensity (a.u.).

On to “TCCCCGACTCCGACCTCTCCGTGCGCACCCTCCCCGACCTCGGAGTCACCTAGTGCAG”, for which the binding signal was 8860 fluorescence intensity (a.u.).

“AATTTCCTTGCTGACAGAAACCCTCGCAACGTGCTTTTCGCGGAGTCACCTAGTGCAG”: the binding signal is 8240 fluorescence intensity (a.u.). The figure for “GATTTCTTTGTTGATTTTATTGGTTTTCTCCTAATCTTGCCGGAGTCACCTAGTGCAG” is 8820 fluorescence intensity (a.u.). The result for “GAAATCATTGACTGTCTTCTTTACCTGTTCTTTGGCAGAACGGAGTCACCTAGTGCAG” reads 12100 fluorescence intensity (a.u.); that for “TTGAACTTCCTTGCAACATTGAATTTGTCCTATAATATGTCGGAGTCACCTAGTGCAG”, 9720 fluorescence intensity (a.u.); that for “CTCCGTCACTCAGATTTAATACATGACTCTCTATTATTCCCGGAGTCACCTAGTGCAG”, 9060 fluorescence intensity (a.u.). The result for “TTACAGTAGTCCTGGAACCTCGCTTTGACCACTGTATTACCGGAGTCACCTAGTGCAG” reads 8470 fluorescence intensity (a.u.); that for “GGGAGTATATATTTCCACGCTGCCCTTTAGTATACACCTCCGGAGTCACCTAGTGCAG”, 8420 fluorescence intensity (a.u.).

Take “ACTATATCTCCTCGATCGGTTGCAGAGTTCAAATTGAAGTCGGAGTCACCTAGTGCAG”: the binding signal is 8270 fluorescence intensity (a.u.). The figure for “TCACCTTGCCTCGCCCTCGCCCTCGCCACCATCCAACGACCGGAGTCACCTAGTGCAG” is 9130 fluorescence intensity (a.u.); for “GCTCTTTCTTCACATTTGCTTCTTCTGAAGTTAGTACTACCGGAGTCACCTAGTGCAG” it is 12400 fluorescence intensity (a.u.). The result for “TCAGCATAACGCACGGTGTACATCCCTTTCATCTATTTACCGGAGTCACCTAGTGCAG” reads 11400 fluorescence intensity (a.u.); that for “CACCTCTGCACCCAATTGCTGCCGCACCCAACTGCCGCGGCGGAGTCACCTAGTGCAG”, 11300 fluorescence intensity (a.u.). The result for “TCATCTCATCTCCTCCAAGAAACCCACCCATCTCTCTCCCCGGAGTCACCTAGTGCAG” reads 8560 fluorescence intensity (a.u.); that for “TGGATCTGGTGTGTTAGTTTGGATTTGTGTTTGTCCTTTTCGGAGTCACCTAGTGCAG”, 12600 fluorescence intensity (a.u.); that for “TCTATTTCTACTCTCTTTTTATGTTTTCATGTTCGTCTGACGGAGTCACCTAGTGCAG”, 12100 fluorescence intensity (a.u.). As to “GGTCGCCTCCTCCACTGCTGGCCACGCCTCTCGCGCCAAGCGGAGTCACCTAGTGCAG”, the binding signal was 11200 fluorescence intensity (a.u.). As for “ATTACTTTTGTGCTGCTGTAGTGTTATTTCATAGTGGAGACGGAGTCACCTAGTGCAG”, the binding signal is 9740 fluorescence intensity (a.u.).

Regarding “ACTTAGTTTTGACCTCATTGAAATTCAATTTAGTTCTCAGCGGAGTCACCTAGTGCAG”, the binding signal is 8100 fluorescence intensity (a.u.). The result for “GCCCATGTTTCTCGGCCTTTCTTGAACACACTCTCACTATCGGAGTCACCTAGTGCAG” reads 9890 fluorescence intensity (a.u.).
